Results published in US9611273B2, “Trioxane thioacetal monomers and dimers and methods of use thereof” (THE JOHNS HOPKINS UNIVERSITY, priority 2012, dated 2017).
Some of these results come from one statement about several compounds together.

Assays:
[1] = Thermal stability of neat thioacetals at 60° C. for 7 days; assay type: physicochemical
[2] = Hydrolysis of thioacetals into DHA in pH=2 water acetonitrile at 37° C. (1H NMR); assay type: physicochemical; conditions: after 24 hours

SMILES	decomposition [1]	hydrolysis into DHA (2a) [2]
C[C@H]1[C@H](SCCCO)O[C@@H]2O[C@]3(C)CC[C@H]4[C@H](C)CC[C@@H]1[C@@]24OO3 [3a, Art-10α-S(CH2)3OH]	less than 2%	–
C[C@H]1[C@H](SCCCOCc2ccc(F)cc2)O[C@@H]2O[C@]3(C)CC[C@H]4[C@H](C)CC[C@@H]1[C@@]24OO3 [3h, Art-10α-S(CH2)3OCH2PhF-4]	less than 2%	less than 2%
CCN(CC)C(=O)OCCCS[C@@H]1O[C@@H]2O[C@]3(C)CC[C@H]4[C@H](C)CC[C@@H]([C@H]1C)[C@@]24OO3 [3r, Art-10α-S(CH2)3OC(O)N(Et)2]	less than 2%	less than 2%
